Laboratory results: PubChem BioAssay AID1259281 (Sanger Institute, 2017)

Test: 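Screen kinases and frequently colorectal-mutated genes for lethal knock-downs and drug partners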 (primary screen)
Cells: human COLO678 colorectal cancer cell line
Knock-down reagent: siRNA pool against human genes
Conditions: anchor drugs at fixed doses: BYL719 1 µM, cetuximab 5 µg/ml or trametinib 10 nM; DMSO vehicle for the siRNA-alone arm
Measurement: 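Cell viability compared with non-targeting pool wells, averaged over replicates; knock-down-alone effect also as robust z-score; synergy scores set knock-down plus drug against expected joint effect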
Direction: robust z-score, siRNA alone: higher = more viable cells; strongly negative means essential; viability, siRNA alone: higher = more surviving cells; synergy score with BYL719 and synergy score with trametinib: higher = stronger synergistic killing with drug
Call rule: 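Essential (knock-down alone) when the siRNA-alone robust z-score is below -3; otherwise no change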
Meaning of the calls: active = essential (knock-down alone); inactive = no change
The deposit covers 794 reagents; below is an unselected part. Of all reagents, 22 (2.8%) were called active. 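Calls rest on knock-down alone only; drug synergy scores play no part in them.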 No viability above 1 is reported: the scale is capped. Further read-outs or replicates are left out here. Not stated in the record: the amount of reagent, the time to read-out.

gene knocked down,"robust z-score, siRNA alone","viability, siRNA alone (fraction of control)",synergy score with BYL719,synergy score with trametinib,outcome
PKM,0.473,1,-0.0765,-0.0407,inactive
CALM2,0.288,0.994,-0.0163,0.0285,inactive
RAD21,0.473,1,0.0403,0.0295,inactive
TSSK3,0.473,1,-0.0919,0.0105,inactive
MOS,-0.796,0.96,0.0222,0.0795,inactive
PTPN11,0.473,1,0.0316,0.0197,inactive
STK36,0.473,1,0.0284,-0.0181,inactive
PIK3C2G,-6.69,0.773,-0.228,-0.0348,active
PFKL,0.473,1,-0.0919,0.0398,inactive
RNASEL,0.473,1,-0.0506,-0.0809,inactive
NPR2,0.473,1,-0.0387,0.00339,inactive
RIOK3,0.473,1,-0.0919,0.0823,inactive
MAP3K20,0.473,1,-0.0919,-0.0863,inactive
TWF1,0.473,1,-0.0919,0.0169,inactive
KSR2,0.473,1,0.0392,-0.0385,inactive
DMPK,0.473,1,0.0302,-0.02,inactive
BRWD1,-0.211,0.978,0.0403,-0.0804,inactive
PNKP,-1.4,0.94,0.0385,0.00295,inactive
MED12,0.473,1,0.174,0.0279,inactive
PAK3,-2.77,0.897,0.0454,0.0638,inactive
CDK9,0.473,1,-0.0919,0.00323,inactive
CHEK2,0.0641,0.987,0.0327,-0.0185,inactive
EPHA10,-0.363,0.973,-0.0632,-0.000341,inactive
JAK2,0.473,1,-0.0277,-0.011,inactive
MAP2K2,0.473,1,0.021,0.0294,inactive
YES1,0.473,1,-0.0919,-0.0309,inactive
PRKG2,0.473,1,-0.0455,-0.0292,inactive
RIPK4,0.473,1,0.0156,-0.0621,inactive
PKLR,0.473,1,-0.0529,0.0481,inactive
POMK,0.473,1,0.0345,0.0359,inactive
TCF7L2,0.473,1,-0.0919,-0.0388,inactive
TTK,0.473,1,-0.0755,0.0366,inactive
SGK3,0.473,1,0.00953,-0.00494,inactive
EPHA7,0.473,1,0.0344,0.023,inactive
PDIK1L,0.473,1,-0.0919,0.0448,inactive
MAP3K2,0.473,1,-0.000596,-0.0294,inactive
AKT1,0.473,1,-0.0919,-0.0258,inactive
PAK5,0.473,1,0.0176,0.107,inactive
ROCK1,0.473,1,-0.0919,-0.0225,inactive
CDKN1B,0.202,0.991,0.0332,0.0127,inactive
NME7,0.473,1,-0.0919,0.00628,inactive
CLK3,-0.515,0.969,-0.12,-0.0177,inactive
BUB1B,-0.273,0.976,0.0772,0.00812,inactive
UCKL1,0.116,0.989,0.0226,0.0291,inactive
ITPKB,0.0776,0.987,-0.0508,0.0222,inactive
STK3,0.473,1,0.1,0.0185,inactive
GAK,0.473,1,0.0403,0.000294,inactive
CAMKK2,0.473,1,-0.0478,-0.0274,inactive
PAK1,0.473,1,0.211,-0.0593,inactive
CDK16,-0.201,0.979,0.0562,0.00242,inactive
